These are yes or no findings as the source states them, for the method shown. In cells and extracts the contact can be indirect. Some results given as binding are weak or reduced against the parent protein; the word gives no strength.
Columns and labels:
[1] = biological target: Toll-like receptor 4 (TLR4) (human (endogenous in HaCaT and human skin fibroblasts)) (UniProt O00206); assay: proximity ligation; DuoLink in situ PLA with anti-NPM1 (ab15440) and anti-TLR4 (sc-293072) on fixed, non-permeabilised HaCaT cells, serum-starved, with or without cytokine MIX (IL-17A, IL-22, TNF-alpha, IFN-gamma) for 8 h; red dots per nucleus counted
[2] = biological target: Toll-like receptor 4 (TLR4) (human (endogenous in HaCaT and human skin fibroblasts)) (UniProt O00206); assay: proximity ligation; DuoLink in situ PLA with anti-NPM1 (ab15440) and anti-TLR4 (sc-293072) on fixed, non-permeabilised primary human fibroblasts of healthy subjects, serum-starved, with or without cytokine MIX (IL-17A, IL-22, TNF-alpha, IFN-gamma) for 8 h; red dots per nucleus counted

The chains behind the UniProt entries cited, without tags or fusion partners. Residues count along the entry.
UniProt O00206, residues 24-839: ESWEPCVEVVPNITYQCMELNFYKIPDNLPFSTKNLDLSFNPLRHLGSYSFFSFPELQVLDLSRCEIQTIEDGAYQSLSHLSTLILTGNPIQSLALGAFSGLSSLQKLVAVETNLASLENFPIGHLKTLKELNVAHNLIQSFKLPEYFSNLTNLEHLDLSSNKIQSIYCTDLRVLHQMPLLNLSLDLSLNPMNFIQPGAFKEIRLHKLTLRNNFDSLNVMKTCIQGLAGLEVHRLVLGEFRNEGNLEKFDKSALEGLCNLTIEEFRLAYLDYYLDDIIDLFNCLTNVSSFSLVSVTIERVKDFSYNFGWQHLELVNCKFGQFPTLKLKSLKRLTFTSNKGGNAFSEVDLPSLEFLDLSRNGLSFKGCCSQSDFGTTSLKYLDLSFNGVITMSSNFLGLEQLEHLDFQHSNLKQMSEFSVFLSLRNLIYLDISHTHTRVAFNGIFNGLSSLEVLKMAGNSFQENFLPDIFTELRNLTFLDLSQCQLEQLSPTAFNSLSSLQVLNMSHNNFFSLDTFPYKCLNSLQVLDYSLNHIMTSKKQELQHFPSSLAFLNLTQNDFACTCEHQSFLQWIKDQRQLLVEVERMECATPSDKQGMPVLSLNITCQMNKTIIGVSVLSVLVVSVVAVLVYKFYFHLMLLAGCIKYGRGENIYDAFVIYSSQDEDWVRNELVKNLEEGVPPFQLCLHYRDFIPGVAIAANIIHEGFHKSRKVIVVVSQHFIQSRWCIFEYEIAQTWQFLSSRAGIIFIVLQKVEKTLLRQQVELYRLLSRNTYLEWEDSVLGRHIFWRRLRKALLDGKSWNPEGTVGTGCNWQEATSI
UniProt P06748: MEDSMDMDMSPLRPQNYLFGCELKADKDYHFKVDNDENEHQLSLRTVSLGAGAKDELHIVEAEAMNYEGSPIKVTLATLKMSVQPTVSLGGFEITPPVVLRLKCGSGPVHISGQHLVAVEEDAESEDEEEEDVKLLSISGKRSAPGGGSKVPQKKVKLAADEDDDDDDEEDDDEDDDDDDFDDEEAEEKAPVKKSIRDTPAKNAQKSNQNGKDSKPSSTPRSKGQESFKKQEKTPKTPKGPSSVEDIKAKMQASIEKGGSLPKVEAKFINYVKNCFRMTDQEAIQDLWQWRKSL

binding [1]: binds | binding [2]: binds
Substance: Nucleophosmin (NPM), extracellular (from UniProt P06748 1-294)

Reference: PMC9095901
